Experimental data reported in the supplement of paper PMC4604168 (melanoma cell lines).
The other results are listed elsewhere or left out. Many values rest on one well or one pass, so single values are uncertain.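 The apoptosis fraction was the count of cleaved-PARP antibody-stained nuclei relative to all DNA-stained nuclei, imaged in 1,536-well plates. Screening doses were set so most cells survived, and baseline and induced cleaved-PARP levels vary greatly across cell lines.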

Key:
Assay in all cases: cleaved PARP positive nuclei fraction relative to DMSO control; melanoma cells; higher = more apoptosis
Details in all cases: library dose: low library concentration; 72 h
501Mel = test system: 501Mel
A101D = test system: A101D
A2058 = test system: A2058
C32 = test system: C32
CBRC008 = test system: CBRC008 (line from a melanoma biopsy)
CBRC014 = test system: CBRC014 (line from a melanoma biopsy)
CBRC016 = test system: CBRC016 (line from a melanoma biopsy)
CBRC017 = test system: CBRC017 (line from a melanoma biopsy)
COLO792 = test system: COLO792
COLO800 = test system: COLO800
COLO829 = test system: COLO829
G361 = test system: G361
IPC-298 = test system: IPC-298
IST-MEL1 = test system: IST-MEL1
LB2518-MEL = test system: LB2518-MEL
LOXIMVI = test system: LOXIMVI

Row | Structure (SMILES) | cleaved PARP positive nuclei fraction (501Mel) | cleaved PARP positive nuclei fraction (A101D) | cleaved PARP positive nuclei fraction (A2058) | cleaved PARP positive nuclei fraction (C32) | cleaved PARP positive nuclei fraction (CBRC008) | cleaved PARP positive nuclei fraction (CBRC014) | cleaved PARP positive nuclei fraction (CBRC016) | cleaved PARP positive nuclei fraction (CBRC017) | cleaved PARP positive nuclei fraction (COLO792) | cleaved PARP positive nuclei fraction (COLO800) | cleaved PARP positive nuclei fraction (COLO829) | cleaved PARP positive nuclei fraction (G361) | cleaved PARP positive nuclei fraction (IPC-298) | cleaved PARP positive nuclei fraction (IST-MEL1) | cleaved PARP positive nuclei fraction (LB2518-MEL) | cleaved PARP positive nuclei fraction (LOXIMVI)
1 | O=C(/C=C/c1cccnc1)NCCCCC1CCN(C(=O)c2ccccc2)CC1 + N#Cc1c(O)c2c(-c3ccc(-c4ccccc4O)cc3)csc2[nH]c1=O [A769662] (first compound 0.01 µM, partner dose 2 µM) | 64.2% | 17.2% | 38.4% | 92.6% | 4260% | 84.7% | 540% | 189% | 273% | 221% | 146% | 4220% | 115% | 42.4% | 309% | 37.2%
2 | O=C(Nc1cc(C(F)(F)F)cc(C(F)(F)F)c1)c1cc(Cl)ccc1O + COc1ccc(-c2ccc3c(N4CCOCC4)nc(N4C[C@@H](C)O[C@@H](C)C4)nc3n2)cc1CO [KU0063794] (first compound 0.016 µM, partner dose 0.02 µM) | 70.6% | 8% | 68.8% | 28% | 57.3% | 98.5% | 52.7% | 121% | 195% | 94.6% | 33% | 96% | 88% | 44.7% | 68.2% | 47.1%
3 | Cc1cn(-c2cc(NC(=O)c3ccc(C)c(Nc4nccc(-c5cccnc5)n4)c3)cc(C(F)(F)F)c2)cn1 [nilotinib] + c1cc(-c2cnn3cc(-c4ccc(OCCN5CCCCC5)cc4)cnc23)ccn1 [Dorsomorphin] (first compound 0.2 µM, partner dose 0.4 µM) | 72.9% | 14.1% | 92% | 116% | 53.8% | 110% | 50.1% | 88.4% | 47.8% | 87.4% | 198% | 34.4% | 46.9% | 28.6% | 64% | 198%
4 | CCCCCCCCCCCCCCCCCCOP(=O)([O-])OC1CC[N+](C)(C)CC1 [Perifosine] + COc1cc(N2CCC(N3CCN(C)CC3)CC2)ccc1Nc1ncc(Cl)c(Nc2ccccc2S(=O)(=O)C(C)C)n1 [NVP-TAE684] (first compound 0.4 µM, partner dose 0.08 µM) | 88.7% | 27.3% | 246% | 157% | 221% | 91.8% | 71.4% | 113% | 74.6% | 79.8% | 118% | 45.7% | 65.1% | 108% | 36.9% | 32.5%
5 | Cc1ccc(Nc2nccc(N(C)c3ccc4c(C)n(C)nc4c3)n2)cc1S(N)(=O)=O [Pazopanib] + c1cc(-c2cnn3cc(-c4ccc(OCCN5CCCCC5)cc4)cnc23)ccn1 [Dorsomorphin] (first compound 0.4 µM, partner dose 0.4 µM) | 229% | 16.8% | 119% | 48.2% | 64.2% | 104% | 29.6% | 92.6% | 86.8% | 71.3% | 227% | 109% | 107% | 110% | 190% | 121%
6 | Cc1cn(-c2cc(NC(=O)c3ccc(C)c(Nc4nccc(-c5cccnc5)n4)c3)cc(C(F)(F)F)c2)cn1 [nilotinib] + Cc1cc([N+](=O)[O-])ccc1NS(=O)(=O)c1cc(Cl)ccc1Cl [FH535] (first compound 0.2 µM, partner dose 1 µM) | 61.2% | 34.2% | 94.5% | 77.1% | 249% | 111% | 326% | 176% | 135% | 105% | 53.6% | 148% | 47.6% | 122% | 136% | 73.2%
7 | CC[C@]1(O)C[C@H]2CN(CCc3c([nH]c4ccccc34)[C@@](C(=O)OC)(c3cc4c(cc3OC)N(C=O)[C@H]3[C@@](O)(C(=O)OC)[C@H](OC(C)=O)[C@]5(CC)C=CCN6CC[C@]43[C@@H]65)C2)C1 [vincristine] + Oc1cc(-c2nc(-c3ccccc3)[nH]c2-c2ccncc2)ccc1Cl [L779450] (first compound 0.0001 µM, partner dose 0.2 µM) | 160% | 17.2% | 427% | 98.3% | 218% | 268% | 22.4% | 92.5% | 136% | 143% | 142% | 160% | 54.8% | 59.4% | 339% | 47.1%
8 | N#CC[C@H](C1CCCC1)n1cc(-c2ncnc3[nH]ccc23)cn1 [ruxolitinib] + O=c1cc(-c2cccc3c2Sc2ccccc2S3)oc(N2CCOCC2)c1 [KU55933] (first compound 1 µM, partner dose 1 µM) | 78.2% | 24.6% | 101% | 67.5% | 211% | 83.6% | 85.3% | 92.5% | 85.8% | 458% | 93.6% | 112% | 43.9% | 104% | 52.1% | 200%
9 | O=C(/C=C/c1cccnc1)NCCCCC1CCN(C(=O)c2ccccc2)CC1 + Cn1cc(/C=C2\C(=O)Nc3cccnc32)c2ccccc21 [GW441756] (first compound 0.01 µM, partner dose 0.4 µM) | 75.9% | 49.6% | 168% | 57.6% | 2150% | 113% | 981% | 563% | 357% | 162% | 350% | 4090% | 326% | 36.2% | 254% | 42.3%
10 | Cc1cn(-c2cc(NC(=O)c3ccc(C)c(Nc4nccc(-c5cccnc5)n4)c3)cc(C(F)(F)F)c2)cn1 [nilotinib] + COc1cc(N2CCC(N3CCN(C)CC3)CC2)ccc1Nc1ncc(Cl)c(Nc2ccccc2S(=O)(=O)C(C)C)n1 [NVP-TAE684] (first compound 0.2 µM, partner dose 0.08 µM) | 132% | 35% | 182% | 48.8% | 97.4% | 97.2% | 85.7% | 94.3% | 89% | 99.4% | 61.5% | 105% | 66% | 37.2% | 42.8% | 111%
11 | CCCCCCCCCCCCCCCCCCOP(=O)([O-])OC1CC[N+](C)(C)CC1 [Perifosine] + CCCCCCCCCCCC1=C(O)C(=O)C=C(O)C1=O [Embelin] (first compound 0.4 µM, partner dose 1.2 µM) | 197% | 19.1% | 95.4% | 149% | 85.8% | 121% | 16.3% | 109% | 172% | 53.2% | 60.7% | 61.6% | 87.9% | 176% | 73% | 80.8%
12 | O=C(/C=C/c1cccnc1)NCCCCC1CCN(C(=O)c2ccccc2)CC1 + CCc1ccc(CCOc2ccc(CC3SC(=O)NC3=O)cc2)nc1 [pioglitazone] (first compound 0.01 µM, partner dose 2 µM) | 107% | 14% | 33.3% | 173% | 2480% | 112% | 405% | 764% | 470% | 597% | 310% | 1880% | 345% | 34.5% | 221% | 92.2%
13 | N#CC[C@H](C1CCCC1)n1cc(-c2ncnc3[nH]ccc23)cn1 [ruxolitinib] + COc1ccc2c(c1)CCC1C2CCC2(C)C(NCCCCCCN3C(=O)C=CC3=O)CCC12 [U73122] (first compound 1 µM, partner dose 0.4 µM) | 67.8% | 27.1% | 39.2% | 35.2% | 112% | 84.6% | 139% | 131% | 197% | 34.5% | 73.4% | 130% | 46.5% | 126% | 61.4% | 86.1%
14 | N#CC[C@H](C1CCCC1)n1cc(-c2ncnc3[nH]ccc23)cn1 [ruxolitinib] + CCCCCCCCCCCC1=C(O)C(=O)C=C(O)C1=O [Embelin] (first compound 1 µM, partner dose 1.2 µM) | 63.8% | 23.7% | 149% | 27% | 90.5% | 95.4% | 97.3% | 88.1% | 164% | 36.2% | 81.9% | 96.2% | 62.1% | 246% | 109% | 85.9%
15 | CC[C@]1(O)C[C@H]2CN(CCc3c([nH]c4ccccc34)[C@@](C(=O)OC)(c3cc4c(cc3OC)N(C=O)[C@H]3[C@@](O)(C(=O)OC)[C@H](OC(C)=O)[C@]5(CC)C=CCN6CC[C@]43[C@@H]65)C2)C1 [vincristine] + O=c1cc(-c2cccc3c2Sc2ccccc2S3)oc(N2CCOCC2)c1 [KU55933] (first compound 0.0001 µM, partner dose 1 µM) | 101% | 14.7% | 802% | 875% | 114% | 115% | 176% | 145% | 112% | 57.6% | 227% | 237% | 189% | 53.7% | 81.5% | 57.6%
16 | CC[C@]1(O)C[C@H]2CN(CCc3c([nH]c4ccccc34)[C@@](C(=O)OC)(c3cc4c(cc3OC)N(C=O)[C@H]3[C@@](O)(C(=O)OC)[C@H](OC(C)=O)[C@]5(CC)C=CCN6CC[C@]43[C@@H]65)C2)C1 [vincristine] + CCCCCCCCCCCC1=C(O)C(=O)C=C(O)C1=O [Embelin] (first compound 0.0001 µM, partner dose 1.2 µM) | 80.6% | 1370% | 315% | 410% | 311% | 114% | 85.1% | 118% | 117% | 164% | 170% | 102% | 91.5% | 76.5% | 70% | 136%
17 | CCCCCCCCCCCCCCCCCCOP(=O)([O-])OC1CC[N+](C)(C)CC1 [Perifosine] + O=c1cc(-c2cccc3c2Sc2ccccc2S3)oc(N2CCOCC2)c1 [KU55933] (first compound 0.4 µM, partner dose 1 µM) | 116% | 24.8% | 361% | 148% | 78% | 71.2% | 45% | 121% | 97% | 66.4% | 151% | 135% | 198% | 82.8% | 63.8% | 69.3%
18 | CCCCCCCCCCCCCCCCCCOP(=O)([O-])OC1CC[N+](C)(C)CC1 [Perifosine] + O=C1NC(=O)/C(=C/c2ccc(-c3ccc(F)cc3O)o2)S1 [AS252424] (first compound 0.4 µM, partner dose 1 µM) | 66.9% | 23% | 107% | 73.1% | 152% | 97.9% | 53.5% | 99.6% | 87.9% | 69.7% | 53.6% | 108% | 65.2% | 124% | 70.4% | 52.4%

Another view of part of the listing above.
Row	Structure (SMILES)	cleaved PARP positive nuclei fraction (501Mel)	cleaved PARP positive nuclei fraction (A101D)	cleaved PARP positive nuclei fraction (A2058)	cleaved PARP positive nuclei fraction (C32)	cleaved PARP positive nuclei fraction (CBRC008)	cleaved PARP positive nuclei fraction (CBRC014)	cleaved PARP positive nuclei fraction (CBRC016)	cleaved PARP positive nuclei fraction (CBRC017)	cleaved PARP positive nuclei fraction (COLO792)	cleaved PARP positive nuclei fraction (COLO800)	cleaved PARP positive nuclei fraction (COLO829)	cleaved PARP positive nuclei fraction (G361)	cleaved PARP positive nuclei fraction (IPC-298)	cleaved PARP positive nuclei fraction (IST-MEL1)	cleaved PARP positive nuclei fraction (LB2518-MEL)	cleaved PARP positive nuclei fraction (LOXIMVI)
2	O=C(Nc1cc(C(F)(F)F)cc(C(F)(F)F)c1)c1cc(Cl)ccc1O + COc1ccc(-c2ccc3c(N4CCOCC4)nc(N4C[C@@H](C)O[C@@H](C)C4)nc3n2)cc1CO [KU0063794] (first compound 0.016 µM, partner dose 0.02 µM)	70.6%	8%	68.8%	28%	57.3%	98.5%	52.7%	121%	195%	94.6%	33%	96%	88%	44.7%	68.2%	47.1%
4	CCCCCCCCCCCCCCCCCCOP(=O)([O-])OC1CC[N+](C)(C)CC1 [Perifosine] + COc1cc(N2CCC(N3CCN(C)CC3)CC2)ccc1Nc1ncc(Cl)c(Nc2ccccc2S(=O)(=O)C(C)C)n1 [NVP-TAE684] (first compound 0.4 µM, partner dose 0.08 µM)	88.7%	27.3%	246%	157%	221%	91.8%	71.4%	113%	74.6%	79.8%	118%	45.7%	65.1%	108%	36.9%	32.5%
11	CCCCCCCCCCCCCCCCCCOP(=O)([O-])OC1CC[N+](C)(C)CC1 [Perifosine] + CCCCCCCCCCCC1=C(O)C(=O)C=C(O)C1=O [Embelin] (first compound 0.4 µM, partner dose 1.2 µM)	197%	19.1%	95.4%	149%	85.8%	121%	16.3%	109%	172%	53.2%	60.7%	61.6%	87.9%	176%	73%	80.8%
15	CC[C@]1(O)C[C@H]2CN(CCc3c([nH]c4ccccc34)[C@@](C(=O)OC)(c3cc4c(cc3OC)N(C=O)[C@H]3[C@@](O)(C(=O)OC)[C@H](OC(C)=O)[C@]5(CC)C=CCN6CC[C@]43[C@@H]65)C2)C1 [vincristine] + O=c1cc(-c2cccc3c2Sc2ccccc2S3)oc(N2CCOCC2)c1 [KU55933] (first compound 0.0001 µM, partner dose 1 µM)	101%	14.7%	802%	875%	114%	115%	176%	145%	112%	57.6%	227%	237%	189%	53.7%	81.5%	57.6%
17	CCCCCCCCCCCCCCCCCCOP(=O)([O-])OC1CC[N+](C)(C)CC1 [Perifosine] + O=c1cc(-c2cccc3c2Sc2ccccc2S3)oc(N2CCOCC2)c1 [KU55933] (first compound 0.4 µM, partner dose 1 µM)	116%	24.8%	361%	148%	78%	71.2%	45%	121%	97%	66.4%	151%	135%	198%	82.8%	63.8%	69.3%
